Test results: PMC10762260
Results are given in words; binding and its absence hold for the method and conditions named. Binding seen in cells or lysates may run through a third protein.

The chains behind the UniProt entries cited, without tags or fusion partners. Residues count along the entry.
UniProt O15118, residues 23-1278: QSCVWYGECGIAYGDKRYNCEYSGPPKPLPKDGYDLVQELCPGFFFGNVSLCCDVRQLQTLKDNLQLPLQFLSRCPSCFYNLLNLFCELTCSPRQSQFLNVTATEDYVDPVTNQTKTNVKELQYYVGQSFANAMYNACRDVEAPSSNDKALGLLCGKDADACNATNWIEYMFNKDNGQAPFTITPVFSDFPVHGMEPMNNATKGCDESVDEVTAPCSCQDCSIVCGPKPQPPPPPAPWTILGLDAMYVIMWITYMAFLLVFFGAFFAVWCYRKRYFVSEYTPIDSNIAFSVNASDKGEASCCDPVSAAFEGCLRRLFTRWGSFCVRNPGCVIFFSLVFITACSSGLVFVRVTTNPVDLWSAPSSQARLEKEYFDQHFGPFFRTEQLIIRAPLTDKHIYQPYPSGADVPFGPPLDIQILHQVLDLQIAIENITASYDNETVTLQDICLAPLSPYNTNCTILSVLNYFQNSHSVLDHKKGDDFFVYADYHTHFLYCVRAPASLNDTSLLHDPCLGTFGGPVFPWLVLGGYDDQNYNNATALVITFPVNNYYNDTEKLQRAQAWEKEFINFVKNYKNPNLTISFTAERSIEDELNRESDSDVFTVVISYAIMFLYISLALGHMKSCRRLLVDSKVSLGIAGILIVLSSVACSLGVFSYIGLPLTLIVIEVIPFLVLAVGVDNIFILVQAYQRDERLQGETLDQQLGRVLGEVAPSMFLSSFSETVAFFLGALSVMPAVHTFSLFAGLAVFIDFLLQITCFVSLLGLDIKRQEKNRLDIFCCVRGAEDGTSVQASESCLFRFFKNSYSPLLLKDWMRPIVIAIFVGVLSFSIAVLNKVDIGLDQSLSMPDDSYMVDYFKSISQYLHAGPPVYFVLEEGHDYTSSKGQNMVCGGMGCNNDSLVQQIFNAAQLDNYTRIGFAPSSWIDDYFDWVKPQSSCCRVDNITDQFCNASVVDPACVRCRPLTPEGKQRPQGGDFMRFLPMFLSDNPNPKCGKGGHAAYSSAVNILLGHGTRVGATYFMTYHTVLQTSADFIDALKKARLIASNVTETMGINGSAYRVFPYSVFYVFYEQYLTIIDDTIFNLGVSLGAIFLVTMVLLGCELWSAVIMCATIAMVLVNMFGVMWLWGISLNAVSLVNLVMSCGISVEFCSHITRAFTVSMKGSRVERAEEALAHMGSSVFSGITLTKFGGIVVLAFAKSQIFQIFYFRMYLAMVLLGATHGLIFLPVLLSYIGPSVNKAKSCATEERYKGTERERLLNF
UniProt P03454, residues 18-565: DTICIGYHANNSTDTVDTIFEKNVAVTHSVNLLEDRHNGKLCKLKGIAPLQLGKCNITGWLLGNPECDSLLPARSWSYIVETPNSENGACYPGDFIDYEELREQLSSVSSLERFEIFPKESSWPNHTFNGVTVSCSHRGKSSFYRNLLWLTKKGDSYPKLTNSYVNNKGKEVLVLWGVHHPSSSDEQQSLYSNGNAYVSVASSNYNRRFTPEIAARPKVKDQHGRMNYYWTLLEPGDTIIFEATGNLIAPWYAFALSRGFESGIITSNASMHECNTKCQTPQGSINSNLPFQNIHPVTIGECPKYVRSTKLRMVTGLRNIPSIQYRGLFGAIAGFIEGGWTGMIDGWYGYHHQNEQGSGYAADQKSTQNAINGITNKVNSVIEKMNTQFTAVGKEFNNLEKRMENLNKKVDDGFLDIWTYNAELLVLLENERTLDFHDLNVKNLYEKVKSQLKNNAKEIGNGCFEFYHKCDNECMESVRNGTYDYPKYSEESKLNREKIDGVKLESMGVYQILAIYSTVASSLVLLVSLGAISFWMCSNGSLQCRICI
UniProt P03522, residues 17-511: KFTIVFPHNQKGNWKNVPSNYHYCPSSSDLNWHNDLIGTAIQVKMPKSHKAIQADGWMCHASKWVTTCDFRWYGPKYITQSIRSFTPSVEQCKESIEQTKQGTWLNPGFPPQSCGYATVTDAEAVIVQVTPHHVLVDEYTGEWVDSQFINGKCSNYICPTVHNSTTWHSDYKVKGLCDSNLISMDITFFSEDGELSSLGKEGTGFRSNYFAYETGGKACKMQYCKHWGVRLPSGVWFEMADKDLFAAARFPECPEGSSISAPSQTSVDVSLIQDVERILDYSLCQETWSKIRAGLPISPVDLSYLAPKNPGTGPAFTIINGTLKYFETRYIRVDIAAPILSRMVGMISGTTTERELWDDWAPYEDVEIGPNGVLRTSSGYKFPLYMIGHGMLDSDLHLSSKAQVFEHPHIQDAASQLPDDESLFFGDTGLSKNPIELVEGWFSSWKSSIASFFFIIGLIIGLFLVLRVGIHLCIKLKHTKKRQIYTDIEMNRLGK

Target: Niemann-Pick C1 (NPC1), full-length, with 3xFLAG tag (pcDNA3.1-NPC1-3FLAG) (human) (UniProt O15118)
Assay: co-IP

Substance | binding
influenza virus haemagglutinin (HA) from the A/WSN/1933 (H1N1) strain (from UniProt P03454) | no binding
vesicular stomatitis virus glycoprotein (VSV-G) (from UniProt P03522 17-511) | no binding
